The assay has as its target cynomolgus monkey (Macaca fascicularis) DR5 (cynomolgus monkey (Macaca fascicularis)). Kind of assay: titration with fluorescence readout (y axis: Log MFI); the text does not describe the assay format.

Results are given in words; binding and its absence hold for the method and conditions named. A result given as binding can be weak or reduced; the word gives no strength.

B1: DR5 mAb 1 (antibody, V domains shown)
VH: EVKFLESGGGLVQPGGSLKLSCVASGFDFSRYWMSWVRQAPGKGLEWIGEINPDSNTINYTPSLKDKFIISRDNAKNTLYLQMTKVRSEDTALYYCTRRAYYGNPAWFAYWGQGTLVTVSS
VL: DIVLTQSPASLAVSLGQRATISCRASKSVSSSGYSYMHWYQQKPGQPPKVLIFLSSNLDSGVPARFSGSGSGTDFTLNIHPVEDGDAATYYCQHSRDLPPTFGGGTKLEIK
For B1, the binding result was “binds”.

B2: DR5 mAb 2 (antibody, V domains shown)
VH: KVQLQQSGAELVKPGASVKLSCKASGYTFTEYILHWVKQKSGQGLEWIGWFYPGNNNIKYNEKFKDKATLTADKSSSTVYMELSRLTSEDSAVYFCARHEQGPGYFDYWGQGTTLTVSS
VL: DIVMTQSHKFMSTSVGDRVSITCKASQDVNTAVAWYQQKPGQSPKLLIYWASTRHTGVPDRFTGSGSGTDYTLTIKSVQAEDLTLYYCQQHYITPWTFGGGTKLEIK
In the case of B2, the binding entry is “binds”.

The values are drawn from patent US20170204176A1.
